From the supplement of paper PMC4604168 (melanoma cell lines)
The other results are listed elsewhere or left out. Single values are uncertain, as repeats are few or missing.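 The apoptosis fraction was the count of cleaved-PARP antibody-stained nuclei relative to all DNA-stained nuclei, imaged in 1,536-well plates. Screening doses were set so most cells survived, and baseline and induced cleaved-PARP levels vary greatly across cell lines.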

Legend:
Assay in all cases: cleaved PARP positive nuclei fraction relative to DMSO control; melanoma cells; higher = more apoptosis
Conditions in all cases: library dose: low library concentration; 72 h
501Mel = system: 501Mel
A101D = system: A101D
A2058 = system: A2058
C32 = system: C32
CBRC008 = system: CBRC008 (line from a melanoma biopsy)
CBRC014 = system: CBRC014 (line from a melanoma biopsy)
CBRC016 = system: CBRC016 (line from a melanoma biopsy)
CBRC017 = system: CBRC017 (line from a melanoma biopsy)

| Compound | cleaved PARP positive nuclei fraction (501Mel) [%] | cleaved PARP positive nuclei fraction (A101D) [%] | cleaved PARP positive nuclei fraction (A2058) [%] | cleaved PARP positive nuclei fraction (C32) [%] | cleaved PARP positive nuclei fraction (CBRC008) [%] | cleaved PARP positive nuclei fraction (CBRC014) [%] | cleaved PARP positive nuclei fraction (CBRC016) [%] | cleaved PARP positive nuclei fraction (CBRC017) [%] |
| --- | --- | --- | --- | --- | --- | --- | --- | --- |
| NC1(c2ccc(-c3nc4ccn5c(=O)[nH]nc5c4cc3-c3ccccc3)cc2)CCC1 + O=S(=O)(c1ccccc1)N(CC(F)(F)F)c1ccc(C(O)(C(F)(F)F)C(F)(F)F)cc1 [T0901317] (first compound 0.4 µM, partner dose 1.4 µM) | 26.8 | 24.8 | 58.2 | 26.9 | 150 | 98.7 | 67 | 98.9 |
| NC(=O)c1ccc(N(C(N)=O)c2c(F)cccc2F)nc1-c1ccc(F)cc1F + Cc1cc([N+](=O)[O-])ccc1NS(=O)(=O)c1cc(Cl)ccc1Cl [FH535] (first compound 0.4 µM, partner dose 1 µM) | 76.9 | 14.6 | 85.9 | 93.9 | 2070 | 207 | 1420 | 927 |
| CC(=O)O[C@@]12CO[C@@H]1C[C@H](O)[C@@]1(C)C(=O)[C@H](O)C3=C(C)[C@@H](OC(=O)[C@H](O)[C@@H](NC(=O)OC(C)(C)C)c4ccccc4)C[C@@](O)([C@@H](OC(=O)c4ccccc4)[C@H]21)C3(C)C [Docetaxel] + COC(=O)c1sccc1S(=O)(=O)Nc1ccc(Nc2ccccc2)cc1OC [GSK0660] (first compound 0.0001 µM, partner dose 1 µM) | 205 | 89 | 937 | 142 | 129 | 431 | 168 | 160 |
| CS(=O)(=O)c1ccc(C(=O)Nc2ccc(Cl)c(-c3ccccn3)c2)c(Cl)c1 [vismodegib] + Oc1cc(-c2nc(-c3ccccc3)[nH]c2-c2ccncc2)ccc1Cl [L779450] (first compound 1 µM, partner dose 0.2 µM) | 94 | 16.6 | 120 | 147 | 51.6 | 96.4 | 77.7 | 71.7 |
| CCCCCCCCc1ccc(CCC(N)(CO)CO)cc1 [fingolimod] + Oc1nc(-c2ccc(C(F)(F)F)cc2)nc2c1CSCC2 [XAV939] (first compound 2 µM, partner dose 2 µM) | 58 | 10.5 | 87.5 | 41.2 | 142 | 115 | 17.1 | 110 |
| Cn1cnc2c(F)c(Nc3ccc(Br)cc3Cl)c(C(=O)NOCCO)cc21 [selumetinib] + CCN(CC)CCCCNc1ncc2cc(-c3cc(OC)cc(OC)c3)c(NC(=O)NC(C)(C)C)nc2n1 [PD173074] (first compound 0.015 µM, partner dose 0.1 µM) | 274 | 107 | 48.2 | 182 | 50.7 | 95.9 | 59.1 | 120 |
| CN(c1ncccc1CNc1nc(Nc2ccc3c(c2)CC(=O)N3)ncc1C(F)(F)F)S(C)(=O)=O + Cn1cc(/C=C2\C(=O)Nc3cccnc32)c2ccccc21 [GW441756] (first compound 0.08 µM, partner dose 0.4 µM) | 93.1 | 29.1 | 47.4 | 88.8 | 422 | 94.5 | 99.5 | 50.7 |
| NC1(c2ccc(-c3nc4ccn5c(=O)[nH]nc5c4cc3-c3ccccc3)cc2)CCC1 + COc1ccc(-c2ccc3c(N4CCOCC4)nc(N4C[C@@H](C)O[C@@H](C)C4)nc3n2)cc1CO [KU0063794] (first compound 0.4 µM, partner dose 0.02 µM) | 148 | 37.7 | 47.7 | 132 | 86.7 | 82.2 | 110 | 82.9 |
| CS(=O)(=O)c1ccc(C(=O)Nc2ccc(Cl)c(-c3ccccn3)c2)c(Cl)c1 [vismodegib] + COC(=O)c1sccc1S(=O)(=O)Nc1ccc(Nc2ccccc2)cc1OC [GSK0660] (first compound 1 µM, partner dose 1 µM) | 59.8 | 25 | 109 | 78.3 | 193 | 107 | 65.5 | 55.3 |
| CC(=O)O[C@@]12CO[C@@H]1C[C@H](O)[C@@]1(C)C(=O)[C@H](O)C3=C(C)[C@@H](OC(=O)[C@H](O)[C@@H](NC(=O)OC(C)(C)C)c4ccccc4)C[C@@](O)([C@@H](OC(=O)c4ccccc4)[C@H]21)C3(C)C [Docetaxel] + CCN(CC)CCCCNc1ncc2cc(-c3cc(OC)cc(OC)c3)c(NC(=O)NC(C)(C)C)nc2n1 [PD173074] (first compound 0.0001 µM, partner dose 0.1 µM) | 96.3 | 53.9 | 3690 | 401 | 372 | 147 | 147 | 130 |
| CCCCCCCCc1ccc(CCC(N)(CO)CO)cc1 [fingolimod] + O=C(Nc1ccccc1)c1cc([N+](=O)[O-])ccc1Cl [GW9662] (first compound 2 µM, partner dose 2 µM) | 165 | 40.8 | 143 | 84.5 | 47 | 116 | 52.6 | 122 |
| CCCCCCCCc1ccc(CCC(N)(CO)CO)cc1 [fingolimod] + COc1cc2ncnc(Nc3ccc(Oc4ccccc4)cc3)c2cc1OC [SrcI1] (first compound 2 µM, partner dose 2 µM) | 222 | 37.4 | 70.8 | 162 | 43.2 | 219 | 665 | 77.4 |
| CN(c1ncccc1CNc1nc(Nc2ccc3c(c2)CC(=O)N3)ncc1C(F)(F)F)S(C)(=O)=O + Oc1nc(-c2ccc(C(F)(F)F)cc2)nc2c1CSCC2 [XAV939] (first compound 0.08 µM, partner dose 2 µM) | 124 | 36.8 | 456 | 105 | 107 | 85.7 | 42.4 | 168 |
| CN(c1ncccc1CNc1nc(Nc2ccc3c(c2)CC(=O)N3)ncc1C(F)(F)F)S(C)(=O)=O + Cc1cc([N+](=O)[O-])ccc1NS(=O)(=O)c1cc(Cl)ccc1Cl [FH535] (first compound 0.08 µM, partner dose 1 µM) | 202 | 54.8 | 70.3 | 108 | 538 | 311 | 520 | 357 |
| C[C@]1(O)C[C@@H](c2nc(-c3ccc4ccc(-c5ccccc5)nc4c3)c3c(N)nccn32)C1 + O=S(=O)(c1ccccc1)N(CC(F)(F)F)c1ccc(C(O)(C(F)(F)F)C(F)(F)F)cc1 [T0901317] (first compound 0.4 µM, partner dose 1.4 µM) | 156 | 13.7 | 99.6 | 93.1 | 34.6 | 97.4 | 61.4 | 81.4 |
| C[C@]1(O)C[C@@H](c2nc(-c3ccc4ccc(-c5ccccc5)nc4c3)c3c(N)nccn32)C1 + O=c1cc(-c2cccc3c2Sc2ccccc2S3)oc(N2CCOCC2)c1 [KU55933] (first compound 0.4 µM, partner dose 1 µM) | 82.5 | 34.8 | 68.4 | 126 | 202 | 98.5 | 82 | 92.7 |
| CS(=O)(=O)c1ccc(C(=O)Nc2ccc(Cl)c(-c3ccccn3)c2)c(Cl)c1 [vismodegib] + CCc1ccc(CCOc2ccc(CC3SC(=O)NC3=O)cc2)nc1 [pioglitazone] (first compound 1 µM, partner dose 2 µM) | 122 | 9.62 | 100 | 75.2 | 393 | 126 | 80.9 | 98.1 |
| CCN(CC)CCNC(=O)c1c(C)[nH]c(/C=C2\C(=O)Nc3ccc(F)cc32)c1C [sunitinib] + CCc1ccc(CCOc2ccc(CC3SC(=O)NC3=O)cc2)nc1 [pioglitazone] (first compound 0.4 µM, partner dose 2 µM) | 272 | 29.7 | 80.4 | 91.3 | 158 | 104 | 76.4 | 81.6 |
| C[C@@H](N)c1ccc(C(=O)Nc2ccnc3[nH]ccc23)cc1 + COc1cc2ncnc(Nc3ccc(Oc4ccccc4)cc3)c2cc1OC [SrcI1] (first compound 0.4 µM, partner dose 2 µM) | 58 | 28.7 | 188 | 83.8 | 160 | 99.8 | 155 | 106 |
| C[C@]1(O)C[C@@H](c2nc(-c3ccc4ccc(-c5ccccc5)nc4c3)c3c(N)nccn32)C1 + Cc1cc([N+](=O)[O-])ccc1NS(=O)(=O)c1cc(Cl)ccc1Cl [FH535] (first compound 0.4 µM, partner dose 1 µM) | 83 | 43.2 | 234 | 185 | 328 | 193 | 1900 | 430 |
| CN(c1ncccc1CNc1nc(Nc2ccc3c(c2)CC(=O)N3)ncc1C(F)(F)F)S(C)(=O)=O + COc1ccc(COc2ccc(Cc3cnc(N)nc3N)cc2OC)cc1 [GW2580] (first compound 0.08 µM, partner dose 1 µM) | 166 | 71.7 | 164 | 84.2 | 150 | 90.3 | 51.5 | 78.5 |
| CC(=O)O[C@@]12CO[C@@H]1C[C@H](O)[C@@]1(C)C(=O)[C@H](O)C3=C(C)[C@@H](OC(=O)[C@H](O)[C@@H](NC(=O)OC(C)(C)C)c4ccccc4)C[C@@](O)([C@@H](OC(=O)c4ccccc4)[C@H]21)C3(C)C [Docetaxel] + c1cc(-c2cnn3cc(-c4ccc(OCCN5CCCCC5)cc4)cnc23)ccn1 [Dorsomorphin] (first compound 0.0001 µM, partner dose 0.4 µM) | 219 | 113 | 8030 | 105 | 664 | 210 | 90 | 198 |

An excerpt of these results, with tabs:
Compound	cleaved PARP positive nuclei fraction (501Mel) [%]	cleaved PARP positive nuclei fraction (A101D) [%]	cleaved PARP positive nuclei fraction (A2058) [%]	cleaved PARP positive nuclei fraction (C32) [%]	cleaved PARP positive nuclei fraction (CBRC008) [%]	cleaved PARP positive nuclei fraction (CBRC014) [%]	cleaved PARP positive nuclei fraction (CBRC016) [%]	cleaved PARP positive nuclei fraction (CBRC017) [%]
CCCCCCCCc1ccc(CCC(N)(CO)CO)cc1 [fingolimod] + COc1cc2ncnc(Nc3ccc(Oc4ccccc4)cc3)c2cc1OC [SrcI1] (first compound 2 µM, partner dose 2 µM)	222	37.4	70.8	162	43.2	219	665	77.4
C[C@]1(O)C[C@@H](c2nc(-c3ccc4ccc(-c5ccccc5)nc4c3)c3c(N)nccn32)C1 + O=c1cc(-c2cccc3c2Sc2ccccc2S3)oc(N2CCOCC2)c1 [KU55933] (first compound 0.4 µM, partner dose 1 µM)	82.5	34.8	68.4	126	202	98.5	82	92.7
